Values from PubChem BioAssay AID686938 (Drosophila RNAi Screening Center, 2013).

- Assay: 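Knock-downs reducing store-operated calcium influx in Drosophila cells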 (primary screen)
- Cell system: Drosophila S2R+ cells
- Reagent: long dsRNA against Drosophila genes, about 0.25 µg dsRNA per well, roughly 10,000 cells
- Time to read-out: 5 days of knock-down before the calcium assay
- Treatment: thapsigargin (SERCA pump blocker) to empty calcium stores; entry signal taken 4 min after adding it
- Read-out: 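Per-well fluo-4 fluorescence in two replicates, unnormalised, measured in resting cells and 4 min after store depletion by the SERCA blocker thapsigargin; ratio of the two present in few wells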
- Reading the numbers: calcium entry signal: higher = stronger calcium signal after store depletion; resting calcium signal: higher = higher resting calcium signal
- Call rule: 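Hit if the duplicate-averaged plate z-score for entry over resting signal is under −3; wells with weak total dye signal (Fmax z < −2) or more than 5 off-targets removed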
- Meaning of the calls: active = strongly reduced calcium entry; inactive = no strong reduction
The deposit covers about 23,000 reagents; this is a random part of those with a known target gene and a result. In the full data, 75 (0.33%) are marked active. 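Raw plate signals without normalisation; calls rest on plate z-scores that were not deposited; ratio present for only 364 wells.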 The record does not give: the dose of the treatment.

Alp4 [DRSC14116] | calcium entry signal, replicate 1 (fluorescence units): 3.84e7; calcium entry signal, replicate 2 (fluorescence units): 6.24e7; resting calcium signal, replicate 1 (fluorescence units): 1.93e7; resting calcium signal, replicate 2 (fluorescence units): 2.48e7; Outcome: inactive
CG31249 [DRSC16248] | calcium entry signal, replicate 1 (fluorescence units): 2.16e7; calcium entry signal, replicate 2 (fluorescence units): 3.02e7; resting calcium signal, replicate 1 (fluorescence units): 3.02e7; resting calcium signal, replicate 2 (fluorescence units): 1.34e7; Outcome: inactive
CG43318 [DRSC14999] | calcium entry signal, replicate 1 (fluorescence units): 2.80e7; calcium entry signal, replicate 2 (fluorescence units): 3.99e7; resting calcium signal, replicate 1 (fluorescence units): 1.42e7; resting calcium signal, replicate 2 (fluorescence units): 5.74e7; Outcome: inactive
CG12605 [DRSC08286] | calcium entry signal, replicate 1 (fluorescence units): 3.70e7; calcium entry signal, replicate 2 (fluorescence units): 5.09e7; resting calcium signal, replicate 1 (fluorescence units): 1.82e7; resting calcium signal, replicate 2 (fluorescence units): 2.15e7; Outcome: inactive
Cp7Fc [DRSC18035] | calcium entry signal, replicate 1 (fluorescence units): 2.87e7; calcium entry signal, replicate 2 (fluorescence units): 4.05e7; resting calcium signal, replicate 1 (fluorescence units): 1.50e7; resting calcium signal, replicate 2 (fluorescence units): 1.94e7; Outcome: inactive
spn-E [DRSC17064] | calcium entry signal, replicate 1 (fluorescence units): 3.08e7; calcium entry signal, replicate 2 (fluorescence units): 4.23e7; resting calcium signal, replicate 1 (fluorescence units): 1.46e7; resting calcium signal, replicate 2 (fluorescence units): 5.64e7; Outcome: inactive
Cyt-c-p [DRSC03310] | calcium entry signal, replicate 1 (fluorescence units): 3.44e7; calcium entry signal, replicate 2 (fluorescence units): 2.17e7; resting calcium signal, replicate 1 (fluorescence units): 1.64e7; resting calcium signal, replicate 2 (fluorescence units): 1.08e7; Outcome: inactive
CAH6 [DRSC15505] | calcium entry signal, replicate 1 (fluorescence units): 3.69e7; calcium entry signal, replicate 2 (fluorescence units): 5.60e7; resting calcium signal, replicate 1 (fluorescence units): 1.82e7; resting calcium signal, replicate 2 (fluorescence units): 2.35e7; Outcome: inactive
mRpL39 [DRSC10255] | calcium entry signal, replicate 1 (fluorescence units): 4.62e7; calcium entry signal, replicate 2 (fluorescence units): 5.33e7; resting calcium signal, replicate 1 (fluorescence units): 1.96e7; resting calcium signal, replicate 2 (fluorescence units): 1.90e7; Outcome: inactive
CG17211 [DRSC02587] | calcium entry signal, replicate 1 (fluorescence units): 3.72e7; calcium entry signal, replicate 2 (fluorescence units): 2.52e7; resting calcium signal, replicate 1 (fluorescence units): 1.77e7; resting calcium signal, replicate 2 (fluorescence units): 1.23e7; Outcome: inactive
ND-B12 [DRSC04060] | calcium entry signal, replicate 1 (fluorescence units): 4.14e7; calcium entry signal, replicate 2 (fluorescence units): 5.57e7; resting calcium signal, replicate 1 (fluorescence units): 2.09e7; resting calcium signal, replicate 2 (fluorescence units): 2.26e7; Outcome: inactive
lncRNA:iab8 [DRSC13187] | calcium entry signal, replicate 1 (fluorescence units): 3.07e7; calcium entry signal, replicate 2 (fluorescence units): 3.59e7; resting calcium signal, replicate 1 (fluorescence units): 2.06e7; resting calcium signal, replicate 2 (fluorescence units): 1.98e7; Outcome: inactive
lncRNA:iab8 [DRSC22252] | calcium entry signal, replicate 1 (fluorescence units): 2.00e7; calcium entry signal, replicate 2 (fluorescence units): 5.11e7; resting calcium signal, replicate 1 (fluorescence units): 1.04e7; resting calcium signal, replicate 2 (fluorescence units): 2.39e7; Outcome: inactive

Part of the list above, set out differently:
target gene	dsRNA	calcium entry signal, replicate 1 (fluorescence units)	calcium entry signal, replicate 2 (fluorescence units)	resting calcium signal, replicate 1 (fluorescence units)	resting calcium signal, replicate 2 (fluorescence units)	Outcome
CG31249	DRSC16248	2.16e7	3.02e7	3.02e7	1.34e7	inactive
CG43318	DRSC14999	2.80e7	3.99e7	1.42e7	5.74e7	inactive
